Measured data: PubChem BioAssay AID1259308 (NCATS, 2017)

Test: 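Candidate targets for better recombinant protein yield in mammalian cells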 (primary screen)
System: human HEK293 embryonic kidney cells stably expressing firefly luciferase (HEK-CMV-Luc2-Hygro)
Knock-down reagent: single siRNA against human genes, 0.8 pmol siRNA per well
Time to read-out: 72 h
Measured: 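Luciferase light (ONE-Glo) measured on one replicate plate set and viability (CellTiter-Glo) on the other, scaled to a negative control siRNA, with robust z-scores and luciferase per cell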
Reading the numbers: total luciferase, z-score and total luciferase, % of control: higher = more reporter protein produced; luciferase per cell, z-score: higher = more reporter output per viable cell; viable cells, % of control: higher = more viable cells
Hit rule: 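An siRNA counts as active if its total luciferase robust z-score exceeds 3; genes with two or more such siRNAs out of three were retested with fresh siRNAs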
Calls: active = raised luciferase; inactive = no rise
Shown is one part, drawn at random, of about 59,000 reagents tested. About 1,510 of them (2.6%) were called active. 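Calls use total luciferase alone and ignore viability, so some active siRNAs may act by altering cell number.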 Unmarked entries are inactive. Reagents against one gene are numbered here.

gene | reagent no. | total luciferase, z-score | total luciferase, % of control | luciferase per cell, z-score | viable cells, % of control
LRCOL1 | 1 | 2.16 | 125 | 1.49 | 94.2
LRCOL1 | 2 | 3.25 (active) | 146 | 2.86 | 77.2
LRCOL1 | 3 | -0.471 | 72.5 | -0.00835 | 81.2
PARD3B | 1 | -0.658 | 68.8 | -0.608 | 90.2
PARD3B | 2 | -0.683 | 68.3 | -0.92 | 97.2
PARD3B | 3 | 1.77 | 117 | 0.902 | 103
AQP7 | 1 | 0.483 | 91.5 | -0.12 | 106
AQP7 | 2 | -0.706 | 67.8 | -0.814 | 93.9
AQP7 | 3 | 1.8 | 118 | 0.906 | 104
LINC02714 | 1 | -0.76 | 66.8 | 0.267 | 69.5
LINC02714 | 2 | 0.127 | 84.4 | -0.0939 | 96.7
LINC02714 | 3 | 0.83 | 98.4 | 0.68 | 91.9
CHCHD3 | 1 | -0.619 | 69.6 | -0.756 | 94.9
CHCHD3 | 2 | 0.72 | 96.2 | 0.521 | 93.7
CHCHD3 | 3 | 1.11 | 104 | 0.822 | 93.6

A stretch taken from the entries so far, as a working copy:
gene | reagent no. | total luciferase, z-score | total luciferase, % of control | luciferase per cell, z-score | viable cells, % of control
PARD3B | 2 | -0.683 | 68.3 | -0.92 | 97.2
PARD3B | 3 | 1.77 | 117 | 0.902 | 103
AQP7 | 1 | 0.483 | 91.5 | -0.12 | 106

Additional entries follow:
gene | reagent no. | total luciferase, z-score | total luciferase, % of control | luciferase per cell, z-score | viable cells, % of control
NFYB | 1 | 1.26 | 107 | 2.31 | 65
NFYB | 2 | 1.61 | 114 | 1.49 | 86
NFYB | 3 | -1.52 | 51.7 | -0.393 | 64
KLHL20 | 1 | 0.154 | 85 | -0.0406 | 96
KLHL20 | 2 | -0.714 | 67.7 | -0.71 | 91.2
KLHL20 | 3 | -1.26 | 56.7 | -0.221 | 67.2
PREP | 1 | 0.7 | 95.8 | 0.455 | 95
PREP | 2 | -0.355 | 74.8 | -0.176 | 87.6
PREP | 3 | 0.734 | 96.5 | 0.281 | 100
COL10A1 | 1 | -0.323 | 75.5 | -0.132 | 87.3
COL10A1 | 2 | 0.454 | 90.9 | 0.417 | 91
COL10A1 | 3 | 0.0585 | 83.1 | 0.266 | 86.5
DDO | 1 | -1.94 | 43.2 | -2.2 | 86.3
DDO | 2 | -1.42 | 53.6 | -2.62 | 119
DDO | 3 | -2.16 | 39 | -3.73 | 116
OR5T1 | 1 | 0.0941 | 83.8 | -0.6 | 110
OR5T1 | 2 | -0.381 | 74.3 | 0.0142 | 82.7
OR5T1 | 3 | -0.279 | 76.3 | 0.497 | 74.8
KCNA7 | 1 | 0.838 | 98.6 | 1.45 | 75.1
KCNA7 | 2 | -1.17 | 58.5 | -1.4 | 94.6
KCNA7 | 3 | -0.702 | 67.9 | -0.673 | 90.6
LINC00997 | 1 | 0.371 | 89.3 | 1.59 | 65.6
LINC00997 | 2 | -0.362 | 74.7 | -0.892 | 106
LINC00997 | 3 | -0.842 | 65.1 | -0.481 | 82.6
